Experimental data taken from PubChem BioAssay AID445 (National Center for Advancing Translational Sciences (NCATS), 2006).
Some of the results follow. Shown are side measurements of this screen, not its main read-out; they come without a call. The list favours compounds with an active or inconclusive main result. Potencies come from curve fits of mixed quality, noted in brackets.

Assay: IkB Signaling
Details: ABC-DLBCL IkBa-CBG/CBR dual luciferase ratio (green luciferase fused to IkBa over red control in OCI-Ly3 lymphoma cells), 4 h
Procedure, shortened: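 In this assay, an IκBα–CBG68 fusion accumulates when IKK-driven degradation is blocked; native CBR normalizes for cell number. OCI-Ly3 cells were treated 4 h with compound and doxycycline, then green and red light read after Chroma-Glo addition.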

[1] = measured here: control luc red channel unless noted

O=C(Nc1ccc(N2CCCCC2)cc1)c1cccnc1
AC50 [1]: 31.6 µM [falling, single point]

Cc1ccc(-c2nc3ccccc3o2)cc1NC(=O)c1cccc2c(Cl)cccc12
AC50 [1]: 3.98 µM [rising, full curve, poor fit]

Cc1nc2sccn2c(=O)c1S(=O)(=O)Nc1ccc(N2CCN(S(C)(=O)=O)CC2)cc1
AC50 [1]: 1 µM [falling, full curve]

O=C(CSc1nc(-c2ccccc2)[nH]c1-c1ccccc1)Nc1ccc2c(c1)OCO2
AC50 [1]: 20 µM [falling, partial curve]

Cc1ccccc1NCc1cccn1-c1nnc(N2CCOCC2)s1
AC50 [1]: 7.94 µM [rising, single point]

O=[N+]([O-])c1cc(-c2nc(-c3ccccc3)no2)ccc1N1CCCC1
AC50 [1]: 39.8 µM [falling, single point]

COc1cc(CNC(=O)CSCc2nc3cccnc3n2C2CCCCC2)cc(OC)c1OC
AC50 [1]: 1.26 µM [rising, full curve]

Cc1ccc(C)c(NC(=O)CCc2nc(-c3ccc(C(C)(C)C)cc3)no2)c1
AC50 [1]: 12.6 µM [falling, partial curve]

CCOc1cc(C#N)c(NC(=O)c2cccc(S(=O)(=O)N3CCOCC3)c2)cc1OCC
AC50 [1]: 20 µM [falling, partial curve, poor fit]

COc1cccc(NC(=O)CN(C)S(=O)(=O)c2cccs2)c1
AC50 [1]: 39.8 µM [falling, single point]

CC1CCN(C(=O)CSc2nc(-c3ccc(C(C)C)cc3)no2)CC1
AC50 [1]: 39.8 µM [falling, single point]

CCC1CCCCN1CCCNC(=O)c1ccc2c(c1)N(Cc1ccccc1F)C(=O)c1ccccc1S2(=O)=O (stereo not drawn)
AC50 [1]: 25.1 µM [rising, single point]

COc1ccc2nc3oc(C(=O)N4CCCCC4)cc3cc2c1
AC50 [1]: 12.6 µM [falling, partial curve]

Cc1ccc(C(=O)Nc2ccc3c(c2)N(C)C(=O)c2ccccc2S3)cc1
AC50 [1]: 2 µM [falling, partial curve]

CCc1ccc(NC(=O)c2cc(S(=O)(=O)N3CCCC3)ccc2F)cc1
AC50 [1]: 12.6 µM [falling, partial curve]

Cc1cccc(-n2ncc(C(=O)N3CCc4ccccc4C3)c2C2CCN(C(=O)OC(C)(C)C)CC2)c1
AC50 [1]: 15.8 µM [falling, partial curve]

Cc1oc2ccc(O)c(CN3CCCCCC3)c2c1C(=O)Nc1cccc(Cl)c1C
AC50 [1]: 31.6 µM [falling, single point]

Cc1c(-c2nsc(NC(=O)c3cccs3)n2)nnn1-c1ccc(Cl)cc1
AC50 [1]: 31.6 µM [rising, partial curve]

Cc1nn2c(=O)cc(COC(=O)c3cccc(NC(=O)COc4ccc(C)c(C)c4)c3)nc2s1
AC50 [1]: 10 µM [falling, partial curve]

c1csc(-c2nn3c(C4COc5ccccc5O4)nnc3s2)c1 (stereo not drawn)
AC50 [1]: 15.8 µM [falling, partial curve]

CCSc1ncc(Cl)c(C(=O)N(Cc2ccccc2Cl)C2CCS(=O)(=O)C2)n1 (stereo not drawn)
AC50 [1]: 39.8 µM [falling, single point]

O=C(c1cccc(COc2ccc(Cl)cc2Cl)c1)N1CCN(c2ccccn2)CC1
AC50 [1]: 10 µM [falling, partial curve]

CCN(CC)CCCNC(=O)c1ccc2c(c1)N(Cc1c(F)cccc1Cl)C(=O)c1ccccc1S2
AC50 [1]: 5.01 µM [falling, partial curve]

O=C(NCCc1ccc(Cl)cc1)C(=O)NCC(c1ccco1)S(=O)(=O)c1cccs1 (stereo not drawn)
AC50 [1]: 6.31 µM [falling, single point]

COc1ccc(-c2nc(-c3ccncc3)no2)cc1OC
AC50 [1]: 12.6 µM [falling, partial curve]

Cc1ccc(OCCSc2nc3ccc(NC(=O)c4ccc5c(c4)OCO5)cc3s2)cc1
AC50 [1]: 39.8 µM [falling, single point]

CCn1c(=O)c(C2=NS(=O)(=O)c3ccccc3N2)c(O)c2ccccc21
AC50 [1]: 0.158 µM [falling, full curve]

O=C(Nc1ccc(F)cc1)C1CCN(c2nc3ccccc3n3cccc23)CC1
AC50 [1]: 15.8 µM [falling, partial curve]

CCCc1ccc(OC(=O)CSc2nnc(-c3cccs3)o2)cc1
AC50 [1]: 3.16 µM [falling, single point]

CCS(=O)(=O)N1CCc2cc(C(=O)Nc3cccc(C)c3C)ccc21
AC50 [1]: 10 µM [falling, partial curve]

Cc1nc(-n2nc(C)c(Cc3ccccc3Cl)c2C)sc1C(=O)N1CCC(C)CC1
AC50 [1]: 12.6 µM [falling, partial curve]

CCOC(=O)C(CC)Sc1ncnc2sc3c(c12)CCCC3 (stereo not drawn)
AC50 [1]: 31.6 µM [falling, partial curve]

COc1ccc(OCC(=O)N2CCN(C(=O)c3cc(OC)c(OC)c(OC)c3)CC2)cc1
AC50 [1]: 0.00501 µM [falling, full curve, poor fit]

CCOc1ccc(C2N3CC4(C(C)C)CN2CC(C(C)C)(C3)C4=O)cc1OC (stereo not drawn)
AC50 [1]: 10 µM [falling, partial curve]

CCN(C(=O)Cn1c(SCC(=O)Nc2ccc(OC)cc2)nc2ccccc21)c1cccc(C)c1
AC50 [1]: 3.16 µM [falling, partial curve]

O=C(COc1ccccc1)NCC(c1cccs1)S(=O)(=O)c1ccc(Cl)cc1 (stereo not drawn)
AC50 [1]: 20 µM [falling, single point]

Cc1cc(C)n2c(Nc3ccccc3C)c(-c3cccs3)nc2n1
AC50 [1]: 20 µM [falling, single point]

COc1cccc(C(=O)Nc2ccc(-n3nncc3-c3ccc(Br)cc3)cc2)c1OC
AC50 [1]: 39.8 µM [falling, partial curve]

Cc1ccc(S(=O)(=O)N(CC(O)Cn2c3ccccc3c3ccccc32)c2cccc(C(=O)N(C)C)c2)cc1 (stereo not drawn)
AC50 [1]: 15.8 µM [falling, partial curve]

Cc1ccc(CN2C(=O)c3ccccc3Sc3ccc(C(=O)NCc4ccco4)cc32)cc1
AC50 [1]: 12.6 µM [falling, partial curve]

CCC1=C(C[C@H]2NCCc3ccccc32)C[C@@H]2c3cc(OC)c(OC)cc3CCN2C1
AC50 [1]: 3.16 µM [falling, partial curve]

Cc1ccc(Oc2nc3c(c(=O)n(Cc4ccccc4)c(=O)n3C)n2C)cc1C
AC50 [1]: 12.6 µM [falling, partial curve]

c1ccc(CCn2nnnc2C(c2cccs2)N2CCN(Cc3ccc4c(c3)OCO4)CC2)cc1 (stereo not drawn)
AC50 [1]: 20 µM [falling, partial curve]

CCN(C(=O)C1CCC(CNS(=O)(=O)c2cccc3nsnc23)CC1)c1ccccc1 (stereo not drawn)
AC50 [1]: 31.6 µM [falling, single point]

CC1(C)CC(=O)c2cc(C(=O)Nc3ccc(Br)cc3)c(=O)[nH]c2C1
AC50 [1]: 0.794 µM [rising, full curve]

CCN(C(=O)C1CCC(CNS(=O)(=O)c2cccc3nsnc23)CC1)c1cccc(C)c1 (stereo not drawn)
AC50 [1]: 12.6 µM [falling, partial curve]

CC[C@]1(O)C[C@H]2CN(CCc3c([nH]c4ccccc34)[C@](C(=O)OC)(c3cc4c(cc3OC)N(C=O)[C@H]3[C@@](O)(C(=O)OC)[C@H](OC(C)=O)[C@@]5(CC)C=CCN6CC[C@]43[C@H]65)C2)C1
AC50 (measured here: IkB-luc green channel): 0.158 µM [rising, full curve] | AC50 (measured here: control luc red channel): 0.0794 µM [rising, full curve]

O=C(Cc1ccc(NC(=O)N2CCSc3ncccc32)cc1)NCc1ccccc1
AC50 [1]: 39.8 µM [falling, single point]

COc1ccc2c(c1)CC(C(=O)NCCN1CCN(c3cccc(Cl)c3)CC1)CO2 (stereo not drawn)
AC50 [1]: 15.8 µM [falling, partial curve, poor fit]

O=C(c1ccc2c(c1)N(Cc1ccc(F)cc1)CCS2)N1CCN(c2ccccc2)CC1
AC50 [1]: 3.16 µM [falling, full curve]

CCOC(=O)C1CCN(Cc2c(O)ccc3ccccc23)CC1
AC50 [1]: 15.8 µM [falling, partial curve]

c1ccc(-n2cnnc2SCc2nc3ccccc3s2)cc1
AC50 [1]: 1.58 µM [falling, full curve]

Cc1ccc(CNC(=O)c2sc3nc4n(c(=O)c3c2C)CCCC4)cc1
AC50 [1]: 25.1 µM [falling, partial curve]

Cc1nc(Oc2ccccc2C)c2oc3ccccc3c2n1
AC50 [1]: 39.8 µM [falling, single point]

COc1ccc2nc3oc(C(=O)Nc4cccc(C(F)(F)F)c4)cc3cc2c1
AC50 [1]: 15.8 µM [rising, single point]

COc1ccc(N2CCN(CCCNC(=O)c3ccc4nc(CCc5ccccc5)oc4c3)CC2)cc1
AC50 [1]: 25.1 µM [falling, single point]

COc1ccc(NC(=O)CSc2c3c(nc4ccc(Cl)cc24)CCCC3)cc1Cl
AC50 [1]: 7.94 µM [falling, full curve]

Cc1ccccc1NC(=O)CS(=O)(=O)c1cccc2nsnc12
AC50 [1]: 31.6 µM [rising, partial curve, poor fit]

Cc1c(Cl)cccc1NC(=O)c1ccc(NC(=O)N2CCSc3ncccc32)cc1
AC50 [1]: 12.6 µM [falling, partial curve]

CCOC(=O)Cc1cnc(NC(=O)c2ccccc2)s1
AC50 [1]: 12.6 µM [falling, partial curve]

COc1ccc(N2CCN(C(=O)c3cnn(-c4ccc(F)cc4)c3-n3cccc3)CC2)cc1
AC50 [1]: 20 µM [falling, single point]

O=C1CCCc2cc(S(=O)(=O)N3CCCC(C(=O)Nc4ccc(F)c(Cl)c4)C3)ccc2N1 (stereo not drawn)
AC50 [1]: 31.6 µM [falling, partial curve]
